# In all, about 320,000 compounds went through this assay and about 22,000 (6.9%) were called active. This list was built around the results that the source calls inconclusive (neither active nor inactive); the mix of calls is not that of the screen. The call rests on the fitted dose curve; in most records, active means well fitted inhibition curve with a large enough effect; inconclusive means small, poorly fitted or top-dose-only effect, or another doubt; inactive means no such curve, though single readings can be large or run the other way. Potencies beside an inconclusive call are fits to weak or partial responses and may not hold up.
# Experiment: Primary qHTS for delayed death inhibitors of the malarial parasite plastid, 96 hour incubation
# Details: P. falciparum luciferase reporter growth; series mostly up to 28.7 µM
# In short: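 Two parasite generations (96 h, 37 C, 5% CO2) of compound exposure in infected erythrocytes (0.05% parasitemia, 2% hematocrit). Luciferase-reporter P. falciparum; decreased luminescence indicates inhibited growth, aimed at apicoplast-acting delayed death.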
# Potency means the concentration at half of the fitted maximal effect.
row,Structure (SMILES),Potency
1,CCOc1ccc(NC(=O)CCc2nnc3ccc(N4CCC5(CC4)OCCO5)nn23)cc1,inactive
2,CCOc1ccc(CCNC(=O)c2ccc(N3CCCC3=O)cc2)cc1OCC,"inconclusive: 2.62 µM [inhibitor, full curve]"
3,CC[N+]1(CC)CC2=Cc3ccccc3CC2C1 (stereo unspecified),"inconclusive: 2.08 µM [inhibitor, full curve, poor fit]"
4,O=C(c1ccc(Cl)cc1)c1oc2ccccc2c1CS(=O)c1ccccc1 (stereo unspecified),"inconclusive: 0.0131 µM [inhibitor, full curve, poor fit]"
5,Cc1cc2ccccc2c(=O)n1CC(=O)NCC(=O)N1CCN(c2ccccc2F)CC1,"inconclusive: 11.7 µM [inhibitor, single point]"
6,O=C(CN1CC=C(c2ccccc2)CC1)Nc1cc(Cl)ccc1Cl,"inconclusive: 10.4 µM [inhibitor, single point]"
7,N#Cc1ccc(C(=O)Nc2ccc(S(=O)(=O)NC3=NCCCCC3)cc2)cc1,"inconclusive: 11.7 µM [inhibitor, partial curve, poor fit]"
8,CN(C)c1oc(-c2ccc(Cl)cc2)nc1S(=O)(=O)c1ccccc1,inactive
9,O=C(NCc1cccs1)c1cc(-c2ccccc2)nc2ccccc12,"inconclusive: 0.0294 µM [inhibitor, partial curve, poor fit]"
10,O=c1c2cc3c(=O)n(CC4CCCO4)c(=O)c3cc2c(=O)n1CC1CCCO1 (stereo unspecified),"inconclusive: 1.04 µM [inhibitor, full curve]"
11,CCCc1cc(SCC(=O)Nc2c(C)n(C)n(-c3ccccc3)c2=O)n2c(nc3ccccc32)c1C#N,"inconclusive: 2.08 µM [inhibitor, full curve]"
12,O=C(NCCO)c1ccc2nc(Cc3cccc(Cl)c3)oc2c1,inactive
13,Clc1ccccc1CSc1nc2ccncc2[nH]1,"inconclusive: 18.5 µM [inhibitor, single point]"
14,CCn1c(SCC(=O)N2CCCc3ccccc32)nc2c1c(=O)n(C)c(=O)n2C,"inconclusive: 10.4 µM [inhibitor, single point]"
15,COc1ccc(C(CNC(=O)COc2ccc(Br)cc2F)N2CCCC2)cc1 (stereo unspecified),"inconclusive: 18.5 µM [inhibitor, single point]"
16,COc1ccc(/C=N\NC(=O)c2cccc(Br)c2)c(OC)c1,inactive
17,O=C(NC1CC1)c1ccc(S(=O)(=O)NCC2CCCCC2)cc1,"inconclusive: 4.65 µM [inhibitor, partial curve, poor fit]"
18,COc1cccc(COC(=O)c2c(C)nn(-c3ccccc3)c2Cl)c1OC,"inconclusive: 4.65 µM [inhibitor, partial curve]"
19,CC1CN(C(=O)CCCN2C(=O)c3ccccc3C2=O)CC(C)O1 (stereo unspecified),"inconclusive: 13.1 µM [inhibitor, single point]"
20,COc1ccc(Cl)cc1NC(=O)N1CCN(c2ccccc2OC)CC1,"inconclusive: 8.28 µM [inhibitor, partial curve]"
21,O=C(O)C1(c2cccc(Cl)c2)CCC1,"inconclusive: 5.22 µM [inhibitor, partial curve, poor fit]"

row,Structure (SMILES),Potency
1,CCC1CCCCN1CCCNC(=O)c1ccc2c(c1)N(Cc1ccc(F)cc1)C(=O)c1ccccc1S2=O (stereo unspecified),"inconclusive: 8.28 µM [inhibitor, partial curve]"
2,Cc1cccc(-c2cc(C(=O)NCCCn3ccnc3)c3ccccc3n2)c1,"inconclusive: 8.28 µM [inhibitor, partial curve, poor fit]"
3,CCN(CC)c1ccc(C=Nc2ccc(C)cc2C)c(O)c1,inactive
4,O=C(Nc1cccs1)Nc1ccc(Br)cc1F,active: 11.7 µM
5,O=C(OC(C(=O)NC1CCCC1)c1ccccc1F)c1ccco1 (stereo unspecified),inactive
6,OCCCc1nc2n(n1)C(c1cccs1)C=C(c1ccccc1)N2 (stereo unspecified),inactive
7,CC(NC(=O)c1ccc(NC2=NC3CS(=O)(=O)CC3S2)cc1)c1ccccc1 (stereo unspecified),"inconclusive: 2.94 µM [inhibitor, full curve, poor fit]"
8,CN(C)S(=O)(=O)c1ccc(NC(=O)C2CC(=O)N(Cc3ccccc3Cl)C2)cc1 (stereo unspecified),"inconclusive: 3.29 µM [inhibitor, partial curve, poor fit]"
9,Cc1cc(C)c([N+](=O)[O-])cc1-c1ccc(/C=N/NC(=O)c2nonc2N)o1,"inconclusive: 7.38 µM [inhibitor, partial curve, poor fit]"
10,Cc1ccc2cc3cc(C(=O)NCc4ccco4)oc3nc2c1,"inconclusive: 1.47 µM [inhibitor, partial curve, poor fit]"
11,O=S(=O)(c1ccc(Cl)cc1)N1CCn2c1nc1ccccc12,"inconclusive: 18.5 µM [inhibitor, single point]"
12,CCN(CC)P(=O)(Nc1ccc(SC(F)F)cc1)c1ccc(N(C)C)cc1NC(=O)c1ccco1 (stereo unspecified),"inconclusive: 1.47 µM [inhibitor, full curve]"
13,CCOC(=O)C(=CNc1cc(C)nn1-c1ccccc1)C(=O)OCC,"inconclusive: 0.0033 µM [inhibitor, full curve, poor fit]"
14,Cc1ccc(NC(=O)CSc2nc3ccccc3nc2N2CCOCC2)cc1,"inconclusive: 14.7 µM [inhibitor, partial curve, poor fit]"
15,C=C1C2(C(=O)Nc3ccc(SC(F)F)cc3)CCC(C2)C1(C)C (stereo unspecified),"inconclusive: 10.4 µM [inhibitor, single point]"
16,Cc1coc2cc3oc(=O)c(CCC(=O)NCCCN4CCOCC4)c(C)c3cc12,inactive
17,CC(OC(=O)c1n[nH]c2ccccc12)C(=O)NC1CCCCC1C (stereo unspecified),"inconclusive: 18.5 µM [inhibitor, single point]"
18,CCC(Sc1nc2ccccc2o1)C(=O)O (stereo unspecified),"inconclusive: 14.7 µM [inhibitor, partial curve, poor fit]"
19,CCCCCCN(C(=O)CCCCCN1C(=O)NC(c2ccc(C(C)(C)C)cc2)C(C(=O)OCc2ccccc2)=C1C)C(C(=O)NCCCC)c1ccc(OCC(=O)OC)c(C(=O)OC)c1 (stereo unspecified),active: 2.08 µM
20,Cc1ccc(NC(=S)NCc2ccccc2)c(C)c1,"inconclusive: 0.0329 µM [inhibitor, full curve]"

# Some values from the list:
# Value of CCCCCCN(C(=O)CCCCCN1C(=O)NC(c2ccc(C(C)(C)C)cc2)C(C(=O)OCc2ccccc2)=C1C)C(C(=O)NCCCC)c1ccc(OCC(=O)OC)c(C(=O)OC)c1 (stereo unspecified) under Potency: active: 2.08 µM
# Value of CCN(CC)P(=O)(Nc1ccc(SC(F)F)cc1)c1ccc(N(C)C)cc1NC(=O)c1ccco1 (stereo unspecified) under Potency: inconclusive: 1.47 µM [inhibitor, full curve]
# Value of Cc1ccc(NC(=O)CSc2nc3ccccc3nc2N2CCOCC2)cc1 under Potency: inconclusive: 14.7 µM [inhibitor, partial curve, poor fit]
